This note sets out measurements from PMC8286840, “Identifying SARS-CoV-2 antiviral compounds by screening for small molecule inhibitors of Nsp3 papain-like protease” (Biochemical Journal, 2021).

Where a name gives a salt, the structure may show the parent alone. Read-outs that look alike come from different tables or passages of the source.

Assay [1] concerns the target T1, SARS-CoV-2 PLpro (nsp3 1564–1878) (Severe acute respiratory syndrome coronavirus 2, UniProt P0DTD1). The assay can be described thus: biochemical. On the set-up: FRET-quenched peptide (Pro3) cleavage by PLpro, 10 min pre-incubation, slope over 20 min, normalised to no-compound control. Conditions: read-out: % of control remaining.
For assay [2], the target named is T1, SARS-CoV-2 PLpro (nsp3 1564–1878). The assay can be described thus: biochemical. Also on record: FRET-quenched peptide (Pro3) cleavage by PLpro, 10 min pre-incubation, slope over 20 min, normalised to no-compound control. Conditions: read-out: % of control remaining. The source holds these as a separate data set.

As for `CC(C)CC(=O)O` [3-Methylbutanoic acid], the remaining activity at 1.25 µM in assay [1] (Well no.=6309, low concentration screen) was 98.5%. In addition, in assay [2] (Well no.=6309, high concentration screen), the remaining activity at 3.75 µM came to 95.1%.

Take `CC(=O)[C@H]1CC[C@H]2[C@@H]3CC[C@H]4C[C@H](O)CC[C@]4(C)[C@H]3C(=O)C[C@]12C` [5alpha-Pregnan-3alpha-ol-11,20-dione]: the remaining activity at 1.25 µM in assay [1] was found to be 102%. The remaining activity at 3.75 µM in assay [2] is 99.4%.

For the compound `O=C(c1ccc(F)cc1)N1CCC[C@H](c2nc(-c3ccc(F)cc3)no2)C1` [ADX-47273], the remaining activity at 1.25 µM in assay [1] (Well no.=5344, low concentration screen) was 95.8%; in assay [1] (Well no.=7949, low concentration screen), 98.5%. For the same compound, the remaining activity at 3.75 µM in assay [2] (Well no.=5344, high concentration screen) came out at 95.8%; in assay [2] (Well no.=7949, high concentration screen), 94.7%.

Regarding `CCC[C@@H]1C[C@@H](C(=O)N[C@@H]([C@H]2O[C@H](SC)[C@H](O)[C@@H](O)[C@H]2O)[C@H](C)Cl)N(C)C1` [Clindamycin.HCl], the remaining activity at 1.25 µM in assay [1] (Well no.=1541, low concentration screen) is 107%. Further, the remaining activity at 3.75 µM in assay [2] (Well no.=1541, high concentration screen) came to 108%.

Consider `COc1cc2c(cc1OC)C(=O)C(CC1CCN(Cc3ccccc3)CC1)C2` (stereo not drawn) [Donepezil.HCl], for which the remaining activity at 1.25 µM in assay [1] (Well no.=1547, low concentration screen) came out at 94.1%. In addition, the remaining activity at 3.75 µM in assay [2] (Well no.=1547, high concentration screen) worked out at 94.1%.

Regarding `CCNC(=O)C[C@@H]1N=C(c2ccc(Cl)cc2)c2cc(OC)ccc2-n2c(C)nnc21` [I-BET762], the remaining activity at 1.25 µM in assay [1] (Well no.=5959, low concentration screen) came out at 102%. In addition, in assay [2] (Well no.=5959, high concentration screen), the remaining activity at 3.75 µM is 101%.

`NCCC[C@H](N)C(=O)O` [L-Ornithine (hydrochloride)]: in assay [1] (Well no.=7689, low concentration screen), the remaining activity at 1.25 µM was determined as 108%. In addition, the remaining activity at 3.75 µM in assay [2] (Well no.=7689, high concentration screen) was found to be 109%.

Consider `COC(=O)C1=C(C)NC(C)=C(C(=O)OC)C1c1ccccc1[N+](=O)[O-]` [Nifedipine], for which the remaining activity at 1.25 µM was found to be 102% in assay [1] (Well no.=859, low concentration screen) and 98.9% in assay [1] (Well no.=1715, low concentration screen). For the same compound, the remaining activity at 3.75 µM in assay [2] (Well no.=859, high concentration screen) amounted to 103%; in assay [2] (Well no.=1715, high concentration screen), 97.4%.

For the compound `CCn1cc(C(=O)O)c(=O)c2cc(F)c(N3CCN(C)CC3)cc21` [Pefloxacin mesylate], in assay [1] (Well no.=4626, low concentration screen), the remaining activity at 1.25 µM was determined as 96.4%. In assay [2] (Well no.=4626, high concentration screen), the remaining activity at 3.75 µM was found to be 95.2%.

Regarding `CCn1cc(C(=O)O)c(=O)c2cc(F)c(N3CCN(C)CC3)cc21` [Pefloxacine mesylate dihydrate], the remaining activity at 1.25 µM in assay [1] (Well no.=2097, low concentration screen) was 102%. Also, the remaining activity at 3.75 µM in assay [2] (Well no.=2097, high concentration screen) turned out to be 102%.

As to `Nc1nc2ccc(OC(F)(F)F)cc2s1` [Riluzole], the remaining activity at 1.25 µM in assay [1] (Well no.=1258, low concentration screen) came to 105%. Also, the remaining activity at 3.75 µM in assay [2] (Well no.=1258, high concentration screen) amounted to 107%.

As for `CN1c2ccccc2C(NCCCCCCC(=O)O)c2ccc(Cl)cc2S1(=O)=O` (stereo not drawn) [Tianeptine sodium], the remaining activity at 1.25 µM in assay [1] was determined as 96.1%. The remaining activity at 3.75 µM in assay [2] turned out to be 93.4%.

In the case of `C#C[C@]1(O)CC[C@H]2[C@@H]3CC[C@H]4Cc5nc6nc7ccccc7n6cc5C[C@]4(C)[C@H]3CC[C@@]21C` [WIN 51708 hydrate], in assay [1] (Well no.=5608, low concentration screen), the remaining activity at 1.25 µM amounted to 98.7%. The remaining activity at 3.75 µM in assay [2] (Well no.=5608, high concentration screen) was 101%.
